# Reference: the supplement of paper PMC12067093, “Discovery and optimisation of a covalent ligand for TRIM25 and its application to targeted protein ubiquitination” (Chemical Science, 2025)
# By UniProt entry, the sequences of proteins in these tests, tags left out. Where a name states a change or a piece, a line headed by the entry shows the natural chain unless it says otherwise.
# UniProt Q8IWR0: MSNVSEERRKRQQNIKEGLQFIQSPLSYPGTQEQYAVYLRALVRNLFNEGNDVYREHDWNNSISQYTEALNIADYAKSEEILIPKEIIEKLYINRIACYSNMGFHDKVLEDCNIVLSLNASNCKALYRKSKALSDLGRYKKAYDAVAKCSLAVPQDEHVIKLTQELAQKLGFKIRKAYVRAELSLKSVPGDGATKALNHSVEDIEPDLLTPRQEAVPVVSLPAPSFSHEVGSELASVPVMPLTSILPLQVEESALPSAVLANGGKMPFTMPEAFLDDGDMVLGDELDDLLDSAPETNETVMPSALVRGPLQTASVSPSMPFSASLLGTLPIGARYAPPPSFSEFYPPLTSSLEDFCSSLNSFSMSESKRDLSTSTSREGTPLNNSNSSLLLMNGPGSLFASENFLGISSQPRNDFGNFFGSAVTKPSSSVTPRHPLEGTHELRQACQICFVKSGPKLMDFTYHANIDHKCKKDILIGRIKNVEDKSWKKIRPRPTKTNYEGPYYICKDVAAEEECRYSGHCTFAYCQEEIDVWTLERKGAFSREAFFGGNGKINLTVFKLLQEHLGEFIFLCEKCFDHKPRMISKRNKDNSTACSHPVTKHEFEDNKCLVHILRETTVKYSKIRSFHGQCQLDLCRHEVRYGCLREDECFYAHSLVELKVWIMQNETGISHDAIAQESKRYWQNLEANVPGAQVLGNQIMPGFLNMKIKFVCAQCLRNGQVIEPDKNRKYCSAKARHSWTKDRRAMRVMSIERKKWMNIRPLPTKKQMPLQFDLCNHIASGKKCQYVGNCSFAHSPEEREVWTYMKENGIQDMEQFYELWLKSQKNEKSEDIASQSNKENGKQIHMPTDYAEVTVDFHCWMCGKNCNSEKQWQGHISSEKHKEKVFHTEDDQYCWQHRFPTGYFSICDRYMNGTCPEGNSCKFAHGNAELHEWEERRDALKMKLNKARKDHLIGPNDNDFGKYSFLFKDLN
# UniProt Q96QU8: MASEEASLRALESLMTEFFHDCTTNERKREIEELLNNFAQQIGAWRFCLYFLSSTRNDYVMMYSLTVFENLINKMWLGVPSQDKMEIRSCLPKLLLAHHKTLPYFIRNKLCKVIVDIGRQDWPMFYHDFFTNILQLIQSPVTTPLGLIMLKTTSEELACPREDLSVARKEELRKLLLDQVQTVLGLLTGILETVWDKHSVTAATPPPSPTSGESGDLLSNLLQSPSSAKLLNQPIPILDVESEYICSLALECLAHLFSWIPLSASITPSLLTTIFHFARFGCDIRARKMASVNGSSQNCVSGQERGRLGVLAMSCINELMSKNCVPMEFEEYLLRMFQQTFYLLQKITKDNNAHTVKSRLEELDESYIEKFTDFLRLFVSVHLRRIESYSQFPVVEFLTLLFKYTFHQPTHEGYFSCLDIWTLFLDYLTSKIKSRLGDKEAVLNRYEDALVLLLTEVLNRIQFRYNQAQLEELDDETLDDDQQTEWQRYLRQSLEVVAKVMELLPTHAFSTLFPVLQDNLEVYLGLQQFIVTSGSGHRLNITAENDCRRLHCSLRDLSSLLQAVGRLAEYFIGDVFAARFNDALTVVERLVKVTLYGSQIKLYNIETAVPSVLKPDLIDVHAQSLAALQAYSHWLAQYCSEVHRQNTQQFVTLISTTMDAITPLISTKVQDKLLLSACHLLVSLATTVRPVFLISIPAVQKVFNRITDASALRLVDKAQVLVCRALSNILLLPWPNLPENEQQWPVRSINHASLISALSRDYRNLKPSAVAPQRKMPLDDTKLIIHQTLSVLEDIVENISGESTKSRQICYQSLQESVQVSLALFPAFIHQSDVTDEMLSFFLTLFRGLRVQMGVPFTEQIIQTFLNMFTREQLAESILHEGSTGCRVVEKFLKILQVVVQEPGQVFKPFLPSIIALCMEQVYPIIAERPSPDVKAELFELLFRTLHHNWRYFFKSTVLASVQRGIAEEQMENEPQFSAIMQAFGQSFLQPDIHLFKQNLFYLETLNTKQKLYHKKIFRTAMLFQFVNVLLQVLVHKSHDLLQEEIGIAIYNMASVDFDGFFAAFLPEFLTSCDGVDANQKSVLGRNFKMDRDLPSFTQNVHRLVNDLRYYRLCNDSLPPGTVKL
# UniProt Q9UGR2: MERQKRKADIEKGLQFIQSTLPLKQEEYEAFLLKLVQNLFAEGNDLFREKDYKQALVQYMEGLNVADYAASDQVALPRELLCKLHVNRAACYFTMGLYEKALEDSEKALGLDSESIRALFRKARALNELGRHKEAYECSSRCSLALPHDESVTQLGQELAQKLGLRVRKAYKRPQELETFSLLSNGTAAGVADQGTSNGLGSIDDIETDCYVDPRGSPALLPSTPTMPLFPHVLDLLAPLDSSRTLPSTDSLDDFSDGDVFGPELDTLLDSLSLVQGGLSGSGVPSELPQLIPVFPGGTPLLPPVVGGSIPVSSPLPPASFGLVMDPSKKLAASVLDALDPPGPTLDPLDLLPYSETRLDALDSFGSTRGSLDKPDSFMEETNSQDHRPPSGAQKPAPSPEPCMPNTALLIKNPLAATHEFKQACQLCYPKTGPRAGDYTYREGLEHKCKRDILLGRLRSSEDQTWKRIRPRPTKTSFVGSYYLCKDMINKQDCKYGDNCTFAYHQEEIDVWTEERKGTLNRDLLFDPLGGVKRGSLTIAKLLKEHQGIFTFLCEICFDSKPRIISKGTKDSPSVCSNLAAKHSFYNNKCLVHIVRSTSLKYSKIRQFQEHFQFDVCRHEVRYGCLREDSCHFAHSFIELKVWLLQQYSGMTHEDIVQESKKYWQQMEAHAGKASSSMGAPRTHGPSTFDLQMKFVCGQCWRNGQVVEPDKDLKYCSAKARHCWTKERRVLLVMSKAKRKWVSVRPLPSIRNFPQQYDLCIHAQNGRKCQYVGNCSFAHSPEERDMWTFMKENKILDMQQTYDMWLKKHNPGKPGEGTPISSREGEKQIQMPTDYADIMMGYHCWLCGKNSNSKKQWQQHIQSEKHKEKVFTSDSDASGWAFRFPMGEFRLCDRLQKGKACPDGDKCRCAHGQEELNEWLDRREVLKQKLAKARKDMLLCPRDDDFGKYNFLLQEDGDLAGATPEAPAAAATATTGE
# UniProt Q6PJT7: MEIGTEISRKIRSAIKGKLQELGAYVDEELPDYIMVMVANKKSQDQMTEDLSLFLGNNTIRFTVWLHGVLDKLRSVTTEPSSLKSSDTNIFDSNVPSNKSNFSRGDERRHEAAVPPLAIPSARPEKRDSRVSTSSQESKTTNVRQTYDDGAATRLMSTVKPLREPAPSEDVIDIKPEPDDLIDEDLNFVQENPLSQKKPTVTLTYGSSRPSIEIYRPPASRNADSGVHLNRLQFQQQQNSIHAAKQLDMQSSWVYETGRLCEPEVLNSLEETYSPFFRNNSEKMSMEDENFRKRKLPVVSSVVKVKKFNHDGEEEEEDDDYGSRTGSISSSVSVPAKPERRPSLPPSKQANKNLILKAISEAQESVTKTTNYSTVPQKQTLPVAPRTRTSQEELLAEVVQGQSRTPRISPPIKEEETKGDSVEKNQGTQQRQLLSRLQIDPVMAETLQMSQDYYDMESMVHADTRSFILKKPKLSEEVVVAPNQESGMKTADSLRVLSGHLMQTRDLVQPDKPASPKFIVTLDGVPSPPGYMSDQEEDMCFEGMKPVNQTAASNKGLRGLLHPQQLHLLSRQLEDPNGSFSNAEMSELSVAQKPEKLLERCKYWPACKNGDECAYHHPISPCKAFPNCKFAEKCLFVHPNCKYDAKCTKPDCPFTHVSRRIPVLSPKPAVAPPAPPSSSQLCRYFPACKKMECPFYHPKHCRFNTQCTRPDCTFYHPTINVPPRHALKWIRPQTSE
# UniProt P13010: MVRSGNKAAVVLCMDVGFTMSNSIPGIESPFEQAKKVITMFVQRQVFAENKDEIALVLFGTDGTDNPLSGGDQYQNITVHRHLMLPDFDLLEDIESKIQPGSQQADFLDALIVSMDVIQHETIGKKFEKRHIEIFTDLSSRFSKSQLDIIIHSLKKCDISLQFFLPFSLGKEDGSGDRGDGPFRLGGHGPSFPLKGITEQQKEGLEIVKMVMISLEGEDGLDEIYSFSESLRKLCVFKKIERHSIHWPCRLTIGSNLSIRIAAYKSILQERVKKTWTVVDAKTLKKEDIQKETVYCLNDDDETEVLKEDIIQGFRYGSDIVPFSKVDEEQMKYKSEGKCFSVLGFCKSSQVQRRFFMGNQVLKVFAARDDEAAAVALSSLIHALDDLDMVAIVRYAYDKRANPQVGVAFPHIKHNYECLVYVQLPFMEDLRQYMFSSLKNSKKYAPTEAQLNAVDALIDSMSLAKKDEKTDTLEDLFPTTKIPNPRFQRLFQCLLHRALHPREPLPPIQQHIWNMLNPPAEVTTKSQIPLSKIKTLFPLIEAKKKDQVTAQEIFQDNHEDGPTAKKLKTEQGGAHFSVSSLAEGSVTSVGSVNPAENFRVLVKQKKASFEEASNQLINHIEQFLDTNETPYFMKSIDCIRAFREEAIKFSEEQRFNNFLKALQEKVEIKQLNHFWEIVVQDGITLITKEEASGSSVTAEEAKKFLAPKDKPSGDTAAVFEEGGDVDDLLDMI
# UniProt Q8WV99: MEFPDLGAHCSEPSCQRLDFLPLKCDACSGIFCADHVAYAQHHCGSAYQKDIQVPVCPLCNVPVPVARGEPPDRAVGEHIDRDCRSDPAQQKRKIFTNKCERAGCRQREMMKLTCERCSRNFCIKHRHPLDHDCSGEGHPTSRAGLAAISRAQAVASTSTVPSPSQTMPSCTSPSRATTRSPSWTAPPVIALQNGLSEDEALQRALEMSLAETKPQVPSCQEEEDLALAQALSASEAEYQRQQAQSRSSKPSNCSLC
# UniProt Q7Z2W4: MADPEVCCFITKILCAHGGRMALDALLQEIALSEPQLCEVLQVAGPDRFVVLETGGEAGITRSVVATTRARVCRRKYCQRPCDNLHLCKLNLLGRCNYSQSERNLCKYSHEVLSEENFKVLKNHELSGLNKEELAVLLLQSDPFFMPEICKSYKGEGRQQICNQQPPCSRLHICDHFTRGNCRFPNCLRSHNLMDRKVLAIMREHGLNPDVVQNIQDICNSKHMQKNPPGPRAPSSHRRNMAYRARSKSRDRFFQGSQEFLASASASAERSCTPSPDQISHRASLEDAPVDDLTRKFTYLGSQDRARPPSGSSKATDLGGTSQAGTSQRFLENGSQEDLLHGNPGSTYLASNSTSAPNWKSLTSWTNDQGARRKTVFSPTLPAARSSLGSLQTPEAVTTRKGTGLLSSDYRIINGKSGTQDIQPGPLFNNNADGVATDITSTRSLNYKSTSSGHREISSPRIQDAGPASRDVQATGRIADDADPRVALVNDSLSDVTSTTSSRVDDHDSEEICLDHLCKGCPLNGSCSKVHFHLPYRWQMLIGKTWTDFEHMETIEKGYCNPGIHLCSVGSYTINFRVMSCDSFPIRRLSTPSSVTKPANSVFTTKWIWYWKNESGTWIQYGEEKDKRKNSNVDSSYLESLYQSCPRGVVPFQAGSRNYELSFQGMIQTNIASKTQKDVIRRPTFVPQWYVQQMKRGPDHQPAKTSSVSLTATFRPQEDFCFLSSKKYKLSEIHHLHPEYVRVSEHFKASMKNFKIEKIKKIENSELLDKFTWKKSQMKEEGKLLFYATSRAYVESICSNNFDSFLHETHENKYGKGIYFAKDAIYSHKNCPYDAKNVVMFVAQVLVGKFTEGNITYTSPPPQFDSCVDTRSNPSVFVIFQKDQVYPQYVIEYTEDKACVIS
# UniProt P18887, whole entry, looked up: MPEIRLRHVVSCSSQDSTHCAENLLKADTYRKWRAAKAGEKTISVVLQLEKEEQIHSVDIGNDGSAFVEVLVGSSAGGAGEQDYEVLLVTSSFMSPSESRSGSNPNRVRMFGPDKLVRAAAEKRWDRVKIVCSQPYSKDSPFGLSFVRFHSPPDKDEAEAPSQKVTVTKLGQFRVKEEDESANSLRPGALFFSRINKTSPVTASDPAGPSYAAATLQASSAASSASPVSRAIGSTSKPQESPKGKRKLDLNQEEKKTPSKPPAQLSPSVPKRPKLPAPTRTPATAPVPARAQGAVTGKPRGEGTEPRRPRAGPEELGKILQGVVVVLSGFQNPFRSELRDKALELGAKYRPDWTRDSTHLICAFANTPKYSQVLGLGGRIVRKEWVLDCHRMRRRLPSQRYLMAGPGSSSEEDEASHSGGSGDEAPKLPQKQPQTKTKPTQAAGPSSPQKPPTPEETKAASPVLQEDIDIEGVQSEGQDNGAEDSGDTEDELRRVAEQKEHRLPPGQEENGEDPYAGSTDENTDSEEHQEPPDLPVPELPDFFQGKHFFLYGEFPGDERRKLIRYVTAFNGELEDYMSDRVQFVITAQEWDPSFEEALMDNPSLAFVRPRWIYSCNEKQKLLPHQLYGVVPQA
# UniProt P27348: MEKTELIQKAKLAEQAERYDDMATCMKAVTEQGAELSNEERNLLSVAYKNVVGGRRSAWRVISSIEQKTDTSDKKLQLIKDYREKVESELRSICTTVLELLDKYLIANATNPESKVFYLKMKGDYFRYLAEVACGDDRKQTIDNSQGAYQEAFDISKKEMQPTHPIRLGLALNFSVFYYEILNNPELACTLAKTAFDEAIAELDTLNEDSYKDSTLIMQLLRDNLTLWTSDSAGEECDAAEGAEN
# The list shows a part of the results.
# Compound: Cc1cc(ccc1-c1ccccc1)C(=O)N1CCCN(CC1)C(=O)CCl [compound 10]
# Test: probe-labelled cysteine peptide fold change vs DMSO (competition) (log2 fold change); higher = less target engagement (more negative = stronger competition)
# Settings: 10 µM; THP-1; incubation time: 4 h
# 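Further: competitive profiling in live THP-1 cells: cysteine peptides tagged with an iodoacetamide desthiobiotin (IA-DTB) probe, intensity after compound treatment relative to DMSO-treated cells.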
row,Target,probe-labelled cysteine peptide fold change
1,XPO5_Q9HAV4_10_AMDQVNALCEQLVK (UniProt Q9HAV4),0.245
2,ZC3H7A_Q8IWR0_921_YMNGTCPEGNSCK (UniProt Q8IWR0),0.00658
3,XPO6_Q96QU8_324_NCVPMEFEEYLLR (UniProt Q96QU8),-0.0141
4,XPO4_Q9C0E2_439_GFFTQHAVQVFNSYIQCHLAAPDGTR (UniProt Q9C0E2),-0.226
5,YARS2_Q9Y2Z4_413_EAPFSEFFLDPGTSVLDTCR (UniProt Q9Y2Z4),-0.158
6,ZC3H7B_Q9UGR2_700_FVCGQCWR (UniProt Q9UGR2),0.0673
7,ZC3H14_Q6PJT7_613_NGDECAYHHPISPCK (UniProt Q6PJT7),0.136
8,ZCCHC4_Q9H5U6_19_NGFEAVEAEGSAGCR (UniProt Q9H5U6),-0.284
9,YRDC_Q86U90_256_FGIIRPGCALESTTAILQQK (UniProt Q86U90),-0.354
10,XPO6_Q96QU8_22_ALESLMTEFFHDCTTNER (UniProt Q96QU8),-0.187
11,XRCC5_P13010_346_CFSVLGFCK (UniProt P13010),-0.101
12,XRCC5_P13010_296_ETVYCLNDDDETEVLK (UniProt P13010),-0.149
13,ZCCHC3_Q9NUD5_348_THMSGSCTQDR (UniProt Q9NUD5),0.151
14,ZC3H14_Q6PJT7_652_CTKPDCPFTHVSR (UniProt Q6PJT7),0.212
15,ZC3H7A_Q8IWR0_775_QMPLQFDLCNHIASGKK (UniProt Q8IWR0),-0.229
16,ZFAND2B_Q8WV99_84_AVGEHIDRDCR (UniProt Q8WV99),-0.0906
17,XPO1_O14980_528_DLLGLCEQK (UniProt O14980),-0.246
18,YWHAH_Q04917_97_ELETVCNDVLSLLDK (UniProt Q04917),0.0168
19,XRCC3_O43542_86_LSLGCPVLDALLR (UniProt O43542),-0.0719
20,ZC3H7B_Q9UGR2_91_AACYFTMGLYEK (UniProt Q9UGR2),0.135

# Rewritten tab-delimited: part of the list above.
row	Target	probe-labelled cysteine peptide fold change
11	XRCC5_P13010_346_CFSVLGFCK (UniProt P13010)	-0.101
20	ZC3H7B_Q9UGR2_91_AACYFTMGLYEK (UniProt Q9UGR2)	0.135

# Following part

row,Target,probe-labelled cysteine peptide fold change
1,ZC3HAV1L_Q96H79_125_DCWSTCTLSHDIHTPVNMQVLK (UniProt Q96H79),-0.0871
2,YES1_P07947_255_LTTVCPTVKPQTQGLAK (UniProt P07947),-0.195
3,ZC3H12A_Q5D1E8_374_RPSPSSQSSSLLTESEQCSLDGK (UniProt Q5D1E8),-0.349
4,XPR1_Q9UBH6_62_FFQTCEK (UniProt Q9UBH6),0.0667
5,XPOT_O43592_650_QASLADCLNHAVGFASR (UniProt O43592),-0.105
6,ZCCHC2_Q9C0B9_305_GGPEDAEVEVEPCK (UniProt Q9C0B9),-0.104
7,ZBTB44_Q8NCP5_31_NDGHFCDITIR (UniProt Q8NCP5),0.224
8,XRCC5_P13010_157_CDISLQFFLPFSLGKEDGSGDRGDGPFR (UniProt P13010),-0.0173
9,ZBTB44_Q8NCP5_272_MADYVTCESTK (UniProt Q8NCP5),-0.268
10,ZC3H13_Q5T200_42_LGPSTGSTAETQCR (UniProt Q5T200),-0.0682
11,ZC3HAV1_Q7Z2W4_721_TSSVSLTATFRPQEDFCFLSSK (UniProt Q7Z2W4),-0.024
12,ZEB2_O60315_583_MIENHNISTPFSCQFCK (UniProt O60315),-0.236
13,XRCC1_P18887_132_IVCSQPYSK (UniProt P18887),-0.0642
14,XPO7_Q9UIA9_331_ILENPQSLSDPNNYHEFCR (UniProt Q9UIA9),0.0419
15,XRCC1_P18887_362_DSTHLICAFANTPK (UniProt P18887),-0.168
16,ZC3H7A_Q8IWR0_149_CSLAVPQDEHVIK (UniProt Q8IWR0),0.0131
17,ZFAND1_Q8TCF1_184_SKPMFFCHR (UniProt Q8TCF1),-0.012
18,YWHAQ_P27348_94_SICTTVLELLDK (UniProt P27348),-0.00239
19,ZC3HAV1_Q7Z2W4_513_VDDHDSEEICLDHLCK (UniProt Q7Z2W4),0.0207
20,YDJC_A8MPS7_119_EAVAAGDVDLPQVREELEAQLSCFR (UniProt A8MPS7),0.183
